Reference: the supplement of paper PMC10849652
Some of the results follow.

Protein sequences, listed by entry. Tags and fused reporters are not part of them. Lines headed by an entry give the natural chain unless they say otherwise; changes in a name come on top.
UniProt Q15334: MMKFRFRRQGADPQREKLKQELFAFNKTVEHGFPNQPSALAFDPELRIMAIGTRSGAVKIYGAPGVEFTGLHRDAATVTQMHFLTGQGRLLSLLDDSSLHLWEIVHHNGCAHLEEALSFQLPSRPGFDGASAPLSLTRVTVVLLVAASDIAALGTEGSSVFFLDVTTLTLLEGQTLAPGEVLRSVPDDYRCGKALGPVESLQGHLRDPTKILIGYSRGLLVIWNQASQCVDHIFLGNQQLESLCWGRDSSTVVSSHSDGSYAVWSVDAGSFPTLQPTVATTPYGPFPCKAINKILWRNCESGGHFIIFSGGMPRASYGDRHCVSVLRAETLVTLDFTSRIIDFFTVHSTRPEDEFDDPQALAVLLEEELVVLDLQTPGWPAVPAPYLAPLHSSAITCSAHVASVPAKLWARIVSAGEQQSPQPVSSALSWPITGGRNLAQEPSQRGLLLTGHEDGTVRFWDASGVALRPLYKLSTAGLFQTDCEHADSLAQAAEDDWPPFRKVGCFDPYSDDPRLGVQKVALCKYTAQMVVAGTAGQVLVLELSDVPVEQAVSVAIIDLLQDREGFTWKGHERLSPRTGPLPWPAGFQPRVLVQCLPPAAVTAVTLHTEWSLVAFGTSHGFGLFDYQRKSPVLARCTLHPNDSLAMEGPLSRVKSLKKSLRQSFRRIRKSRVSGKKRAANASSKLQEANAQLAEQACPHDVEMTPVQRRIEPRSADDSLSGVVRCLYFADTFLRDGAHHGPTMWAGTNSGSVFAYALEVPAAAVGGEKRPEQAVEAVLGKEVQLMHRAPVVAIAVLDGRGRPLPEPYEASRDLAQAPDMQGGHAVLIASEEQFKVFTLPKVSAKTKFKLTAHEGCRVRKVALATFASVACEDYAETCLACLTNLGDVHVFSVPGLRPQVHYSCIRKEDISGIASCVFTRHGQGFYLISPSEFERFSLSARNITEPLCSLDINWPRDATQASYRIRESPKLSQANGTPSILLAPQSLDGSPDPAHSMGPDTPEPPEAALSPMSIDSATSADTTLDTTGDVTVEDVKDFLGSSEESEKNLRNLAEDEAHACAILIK
UniProt P07864: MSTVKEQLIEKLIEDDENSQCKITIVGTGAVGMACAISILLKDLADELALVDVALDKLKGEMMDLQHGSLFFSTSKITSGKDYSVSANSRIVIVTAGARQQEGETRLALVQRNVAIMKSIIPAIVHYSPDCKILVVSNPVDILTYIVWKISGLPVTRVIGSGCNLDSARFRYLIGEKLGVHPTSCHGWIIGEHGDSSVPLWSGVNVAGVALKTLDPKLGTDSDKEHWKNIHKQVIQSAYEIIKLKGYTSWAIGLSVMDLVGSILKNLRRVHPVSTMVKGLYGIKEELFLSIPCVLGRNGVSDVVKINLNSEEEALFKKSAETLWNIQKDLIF
UniProt Q93052: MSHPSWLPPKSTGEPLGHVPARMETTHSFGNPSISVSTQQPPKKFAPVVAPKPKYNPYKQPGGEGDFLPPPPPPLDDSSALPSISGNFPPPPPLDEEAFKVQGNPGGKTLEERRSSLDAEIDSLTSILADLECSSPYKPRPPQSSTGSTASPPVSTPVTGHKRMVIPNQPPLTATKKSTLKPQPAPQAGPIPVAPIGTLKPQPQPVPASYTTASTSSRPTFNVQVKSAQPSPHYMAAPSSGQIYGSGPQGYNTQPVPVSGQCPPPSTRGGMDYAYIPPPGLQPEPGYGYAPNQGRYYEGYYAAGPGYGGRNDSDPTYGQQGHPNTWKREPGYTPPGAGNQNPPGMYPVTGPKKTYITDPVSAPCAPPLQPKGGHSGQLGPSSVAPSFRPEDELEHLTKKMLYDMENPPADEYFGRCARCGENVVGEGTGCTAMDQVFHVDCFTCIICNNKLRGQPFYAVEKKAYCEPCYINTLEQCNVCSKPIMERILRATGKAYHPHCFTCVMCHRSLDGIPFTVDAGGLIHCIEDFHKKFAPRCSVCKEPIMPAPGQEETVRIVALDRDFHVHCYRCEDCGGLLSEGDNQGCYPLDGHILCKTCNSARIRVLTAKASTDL
UniProt Q9H9Z2: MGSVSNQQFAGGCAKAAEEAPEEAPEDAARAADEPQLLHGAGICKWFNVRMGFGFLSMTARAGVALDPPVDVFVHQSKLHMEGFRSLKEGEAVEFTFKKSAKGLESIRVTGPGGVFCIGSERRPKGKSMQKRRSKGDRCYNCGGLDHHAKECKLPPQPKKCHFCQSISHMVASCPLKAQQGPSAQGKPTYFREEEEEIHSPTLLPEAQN
UniProt O75427: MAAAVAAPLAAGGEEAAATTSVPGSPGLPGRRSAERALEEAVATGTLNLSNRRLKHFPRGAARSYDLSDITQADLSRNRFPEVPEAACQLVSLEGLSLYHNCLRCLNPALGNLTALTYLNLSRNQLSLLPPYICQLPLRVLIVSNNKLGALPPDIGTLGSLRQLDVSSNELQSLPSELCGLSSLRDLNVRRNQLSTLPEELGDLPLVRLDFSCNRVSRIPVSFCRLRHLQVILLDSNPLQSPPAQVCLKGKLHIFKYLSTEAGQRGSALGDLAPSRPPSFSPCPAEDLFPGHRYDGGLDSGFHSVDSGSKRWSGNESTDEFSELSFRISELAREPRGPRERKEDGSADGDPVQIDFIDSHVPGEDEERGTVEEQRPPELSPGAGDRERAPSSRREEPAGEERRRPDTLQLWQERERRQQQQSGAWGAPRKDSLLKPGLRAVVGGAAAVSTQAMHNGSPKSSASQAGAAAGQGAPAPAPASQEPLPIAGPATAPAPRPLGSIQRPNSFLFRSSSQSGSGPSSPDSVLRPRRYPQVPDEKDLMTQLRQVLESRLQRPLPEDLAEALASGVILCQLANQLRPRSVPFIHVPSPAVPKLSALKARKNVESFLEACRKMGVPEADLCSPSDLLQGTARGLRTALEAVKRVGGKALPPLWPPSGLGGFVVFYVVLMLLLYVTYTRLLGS
UniProt P53667: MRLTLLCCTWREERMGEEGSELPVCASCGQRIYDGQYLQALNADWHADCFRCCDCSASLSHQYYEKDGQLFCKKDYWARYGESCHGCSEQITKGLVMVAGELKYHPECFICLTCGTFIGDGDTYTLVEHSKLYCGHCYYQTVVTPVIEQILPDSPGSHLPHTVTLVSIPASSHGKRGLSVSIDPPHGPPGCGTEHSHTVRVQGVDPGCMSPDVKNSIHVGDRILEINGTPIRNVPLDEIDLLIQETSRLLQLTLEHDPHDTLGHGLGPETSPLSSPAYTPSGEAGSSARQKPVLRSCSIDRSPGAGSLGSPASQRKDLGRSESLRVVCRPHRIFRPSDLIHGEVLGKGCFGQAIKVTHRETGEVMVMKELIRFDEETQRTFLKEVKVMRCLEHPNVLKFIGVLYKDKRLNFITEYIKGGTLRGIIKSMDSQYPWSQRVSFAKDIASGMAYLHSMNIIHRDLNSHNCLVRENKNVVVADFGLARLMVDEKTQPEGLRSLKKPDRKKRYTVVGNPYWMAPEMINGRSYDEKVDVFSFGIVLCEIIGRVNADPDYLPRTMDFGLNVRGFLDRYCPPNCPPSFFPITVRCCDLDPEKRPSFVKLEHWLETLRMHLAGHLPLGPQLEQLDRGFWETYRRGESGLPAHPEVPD
UniProt O95214: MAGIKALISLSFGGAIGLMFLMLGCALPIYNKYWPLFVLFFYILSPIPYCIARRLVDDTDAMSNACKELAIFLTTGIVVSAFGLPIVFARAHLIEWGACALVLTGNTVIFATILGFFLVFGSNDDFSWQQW
UniProt Q15048: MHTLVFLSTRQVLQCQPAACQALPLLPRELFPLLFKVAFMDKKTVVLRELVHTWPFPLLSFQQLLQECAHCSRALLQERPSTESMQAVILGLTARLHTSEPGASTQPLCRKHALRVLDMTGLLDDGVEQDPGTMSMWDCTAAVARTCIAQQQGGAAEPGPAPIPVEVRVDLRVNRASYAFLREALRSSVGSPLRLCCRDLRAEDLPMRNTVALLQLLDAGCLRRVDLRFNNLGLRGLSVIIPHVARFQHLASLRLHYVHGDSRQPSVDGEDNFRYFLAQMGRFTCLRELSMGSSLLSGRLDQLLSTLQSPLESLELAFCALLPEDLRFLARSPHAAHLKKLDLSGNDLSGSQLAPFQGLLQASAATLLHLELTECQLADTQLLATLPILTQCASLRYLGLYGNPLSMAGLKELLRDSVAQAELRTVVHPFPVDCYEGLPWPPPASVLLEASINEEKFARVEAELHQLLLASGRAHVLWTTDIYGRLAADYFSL
UniProt Q96JN0: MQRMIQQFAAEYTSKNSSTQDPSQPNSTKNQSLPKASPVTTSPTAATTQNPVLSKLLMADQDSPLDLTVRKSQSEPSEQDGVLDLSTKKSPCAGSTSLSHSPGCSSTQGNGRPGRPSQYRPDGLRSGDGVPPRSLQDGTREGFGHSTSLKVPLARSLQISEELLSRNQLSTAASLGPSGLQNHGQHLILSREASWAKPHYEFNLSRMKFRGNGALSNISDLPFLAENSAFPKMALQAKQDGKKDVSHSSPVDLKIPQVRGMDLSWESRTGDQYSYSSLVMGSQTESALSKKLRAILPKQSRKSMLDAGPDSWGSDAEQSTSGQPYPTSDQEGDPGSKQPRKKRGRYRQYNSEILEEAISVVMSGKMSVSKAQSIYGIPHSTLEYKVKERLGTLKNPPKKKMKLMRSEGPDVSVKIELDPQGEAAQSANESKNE
UniProt Q5T7N2: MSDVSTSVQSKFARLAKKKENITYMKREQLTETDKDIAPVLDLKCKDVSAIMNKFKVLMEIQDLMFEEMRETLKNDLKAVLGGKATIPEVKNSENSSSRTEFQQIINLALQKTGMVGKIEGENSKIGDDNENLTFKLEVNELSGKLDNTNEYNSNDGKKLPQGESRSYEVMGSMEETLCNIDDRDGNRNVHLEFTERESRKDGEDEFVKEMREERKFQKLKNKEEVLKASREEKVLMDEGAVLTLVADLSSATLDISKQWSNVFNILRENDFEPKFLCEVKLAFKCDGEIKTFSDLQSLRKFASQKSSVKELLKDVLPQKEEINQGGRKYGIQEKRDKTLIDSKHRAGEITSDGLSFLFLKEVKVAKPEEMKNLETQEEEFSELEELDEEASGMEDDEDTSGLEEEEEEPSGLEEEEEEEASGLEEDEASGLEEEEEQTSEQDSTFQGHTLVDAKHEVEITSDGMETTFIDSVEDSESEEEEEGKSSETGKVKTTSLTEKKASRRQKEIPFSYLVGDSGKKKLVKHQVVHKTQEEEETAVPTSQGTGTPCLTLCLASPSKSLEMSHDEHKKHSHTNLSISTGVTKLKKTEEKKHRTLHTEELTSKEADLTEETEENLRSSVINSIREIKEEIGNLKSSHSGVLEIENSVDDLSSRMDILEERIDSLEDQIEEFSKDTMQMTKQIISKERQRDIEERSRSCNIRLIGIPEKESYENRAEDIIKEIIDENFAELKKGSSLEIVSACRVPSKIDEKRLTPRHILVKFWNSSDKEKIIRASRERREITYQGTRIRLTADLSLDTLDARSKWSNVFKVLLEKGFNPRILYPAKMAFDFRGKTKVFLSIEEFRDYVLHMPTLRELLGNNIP
UniProt Q08380: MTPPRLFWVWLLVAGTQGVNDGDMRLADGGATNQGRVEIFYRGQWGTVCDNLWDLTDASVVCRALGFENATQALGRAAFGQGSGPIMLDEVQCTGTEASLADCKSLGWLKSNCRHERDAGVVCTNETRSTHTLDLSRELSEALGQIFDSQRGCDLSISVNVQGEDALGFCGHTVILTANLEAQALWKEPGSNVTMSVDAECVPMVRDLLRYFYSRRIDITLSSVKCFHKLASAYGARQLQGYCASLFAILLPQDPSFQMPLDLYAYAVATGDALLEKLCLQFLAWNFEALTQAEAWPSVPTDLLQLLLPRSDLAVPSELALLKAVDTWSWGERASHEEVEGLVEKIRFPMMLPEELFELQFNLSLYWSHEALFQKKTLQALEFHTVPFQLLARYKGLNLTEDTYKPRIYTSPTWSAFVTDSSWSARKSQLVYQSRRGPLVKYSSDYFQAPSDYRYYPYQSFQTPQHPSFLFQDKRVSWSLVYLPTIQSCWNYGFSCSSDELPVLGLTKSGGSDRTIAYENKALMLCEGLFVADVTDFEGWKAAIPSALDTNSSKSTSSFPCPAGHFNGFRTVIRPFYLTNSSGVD
UniProt Q53QV2: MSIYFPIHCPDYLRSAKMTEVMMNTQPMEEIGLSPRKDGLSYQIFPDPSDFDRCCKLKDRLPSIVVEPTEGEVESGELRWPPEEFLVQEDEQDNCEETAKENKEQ
UniProt Q13571: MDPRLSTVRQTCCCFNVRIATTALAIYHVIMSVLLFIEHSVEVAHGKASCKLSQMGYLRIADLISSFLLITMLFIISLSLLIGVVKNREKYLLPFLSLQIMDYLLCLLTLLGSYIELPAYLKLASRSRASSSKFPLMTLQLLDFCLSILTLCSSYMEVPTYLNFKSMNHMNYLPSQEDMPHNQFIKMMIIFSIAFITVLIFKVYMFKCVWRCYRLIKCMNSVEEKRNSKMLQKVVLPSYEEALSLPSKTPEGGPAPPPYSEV
UniProt O15243: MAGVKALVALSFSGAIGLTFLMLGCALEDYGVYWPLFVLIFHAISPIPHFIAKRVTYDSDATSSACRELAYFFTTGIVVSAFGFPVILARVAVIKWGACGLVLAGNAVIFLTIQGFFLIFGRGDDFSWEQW

compound: NC(=O)Nc1cc(-c2cccc(F)c2)sc1C(=O)N[C@H]1CCCNC1; test: log2 fold change, soluble protein after heating vs DMSO (PISA); higher = thermal stabilisation; K562 cells, 10 uM, 30 min; active = over 0.2 and 3.5 SD of the protein, either way, in both replicates (recomputed)
Procedure, shortened: (§1)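 Soluble protein was quantified by TMTpro 16plex LC-MS/MS after channel sums were equalised. It was obtained as the supernatant after 21,000xg for 90 min from pooled aliquots of K562 cells (2×10^6 cells/mL, 10 μM compound, 30 min) heated for 3 min across 48°C-58°C and extracted in PBS with 0.5% NP-40 at 4°C. Thermal stability values are relative to control samples and come from duplicates. They are given as log2 fold changes.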

log2 fold change, inactive:
LAPTM4A (UniProt Q15012) -0.148
LARGE2 (UniProt Q8N3Y3) 0.023
LLGL1 (UniProt Q15334) -0.073
LDHC (UniProt P07864) -0.032
LARP1B, A0A3B3ISF0 0.13
LPP (UniProt Q93052) -0.144
LIN28A (UniProt Q9H9Z2) 0.181
LRCH4 (UniProt O75427) 0.176
LIMK1 (UniProt P53667) -0.064

Retrieved one by one from above:
log2 fold change, inactive:
LLGL1 (UniProt Q15334) -0.073
LRCH4 (UniProt O75427) 0.176

compound: NC(=O)c1cnc(N[C@@H]2CCCC[C@@H]2N)nc1Nc1cccc(-n2nccn2)c1; test: as above
Procedure, shortened: as §1

log2 fold change, inactive:
LEPROTL1 isoform 2 (UniProt O95214) -0.03
LRRC42 (UniProt Q9Y546) -0.353
LRRC14 (UniProt Q15048) 0.133
LCOR isoform 3 (UniProt Q96JN0) 0.042
LLGL2 (UniProt Q6P1M3) 0.105
L1TD1 (UniProt Q5T7N2) -0.472
LGALS3BP (UniProt Q08380) 0.185
LBH (UniProt Q53QV2) 0.029
KXD1 (UniProt Q9BQD3) -0.091
LAMP2 isoform 2 (UniProt P13473) -0.1
LRP1 (UniProt Q07954) -0.084
LAPTM5 (UniProt Q13571) -0.033
LEPROT (UniProt O15243) -0.161
LAMA5 (UniProt O15230) -0.113
LMO4 (UniProt P61968) -0.031
LIPT1 (UniProt Q9Y234) 0.155
